Source: ChEMBL document CHEMBL3988442, “University of Dundee, Small-Polar-MMV Screening Library” (2021).

Sequences of proteins named here, by UniProt entry; tags and fusion partners are left off. Residues count along the entry.
UniProt Q8IDJ8, 1-583: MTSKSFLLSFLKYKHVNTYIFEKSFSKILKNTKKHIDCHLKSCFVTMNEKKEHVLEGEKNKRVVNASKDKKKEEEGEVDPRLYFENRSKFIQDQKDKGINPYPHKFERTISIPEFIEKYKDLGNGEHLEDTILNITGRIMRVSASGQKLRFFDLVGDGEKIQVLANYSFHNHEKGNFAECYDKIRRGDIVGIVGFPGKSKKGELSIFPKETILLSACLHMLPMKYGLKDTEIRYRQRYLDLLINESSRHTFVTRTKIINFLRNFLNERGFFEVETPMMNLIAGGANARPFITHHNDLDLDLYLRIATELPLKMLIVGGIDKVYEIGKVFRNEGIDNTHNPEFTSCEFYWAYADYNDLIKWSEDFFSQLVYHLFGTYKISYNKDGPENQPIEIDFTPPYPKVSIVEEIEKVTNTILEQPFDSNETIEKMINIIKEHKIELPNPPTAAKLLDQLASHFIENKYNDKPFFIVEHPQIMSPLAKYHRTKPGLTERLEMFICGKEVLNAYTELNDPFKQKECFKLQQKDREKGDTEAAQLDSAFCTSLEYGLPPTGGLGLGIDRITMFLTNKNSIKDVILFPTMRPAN
UniProt A4I591, 1-473: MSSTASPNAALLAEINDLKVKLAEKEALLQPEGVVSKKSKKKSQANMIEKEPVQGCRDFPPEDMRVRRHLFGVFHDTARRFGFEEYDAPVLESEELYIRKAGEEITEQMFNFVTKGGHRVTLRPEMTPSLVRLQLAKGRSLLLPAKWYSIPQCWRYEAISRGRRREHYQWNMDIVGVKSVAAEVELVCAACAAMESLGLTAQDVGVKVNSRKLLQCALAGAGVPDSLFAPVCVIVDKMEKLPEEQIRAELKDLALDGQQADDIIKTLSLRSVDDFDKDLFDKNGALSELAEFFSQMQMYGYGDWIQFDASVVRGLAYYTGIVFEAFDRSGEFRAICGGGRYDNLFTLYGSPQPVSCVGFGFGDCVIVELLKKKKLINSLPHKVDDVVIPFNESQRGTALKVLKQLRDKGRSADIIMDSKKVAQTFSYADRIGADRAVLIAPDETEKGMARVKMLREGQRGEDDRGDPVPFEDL
UniProt Q4DA54, 1-478: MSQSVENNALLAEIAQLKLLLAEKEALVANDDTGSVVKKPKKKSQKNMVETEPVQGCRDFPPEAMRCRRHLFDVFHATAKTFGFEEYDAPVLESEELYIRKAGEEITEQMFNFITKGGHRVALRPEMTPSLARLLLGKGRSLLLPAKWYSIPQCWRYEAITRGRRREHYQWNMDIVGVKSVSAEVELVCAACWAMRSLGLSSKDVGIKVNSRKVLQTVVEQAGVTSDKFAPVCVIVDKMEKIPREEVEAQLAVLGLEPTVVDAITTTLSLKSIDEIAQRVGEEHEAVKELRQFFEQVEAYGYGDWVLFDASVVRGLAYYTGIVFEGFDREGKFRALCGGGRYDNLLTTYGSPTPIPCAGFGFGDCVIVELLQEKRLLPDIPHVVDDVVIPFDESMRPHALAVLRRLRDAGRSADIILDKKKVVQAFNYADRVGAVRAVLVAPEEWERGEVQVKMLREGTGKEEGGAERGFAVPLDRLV
UniProt P9WPC5, whole entry: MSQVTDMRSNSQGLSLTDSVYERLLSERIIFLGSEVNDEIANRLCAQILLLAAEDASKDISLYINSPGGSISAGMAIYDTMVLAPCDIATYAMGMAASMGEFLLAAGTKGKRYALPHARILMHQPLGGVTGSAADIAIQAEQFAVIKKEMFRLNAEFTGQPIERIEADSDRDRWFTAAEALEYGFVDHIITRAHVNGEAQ
UniProt P9WPC3, whole entry partner: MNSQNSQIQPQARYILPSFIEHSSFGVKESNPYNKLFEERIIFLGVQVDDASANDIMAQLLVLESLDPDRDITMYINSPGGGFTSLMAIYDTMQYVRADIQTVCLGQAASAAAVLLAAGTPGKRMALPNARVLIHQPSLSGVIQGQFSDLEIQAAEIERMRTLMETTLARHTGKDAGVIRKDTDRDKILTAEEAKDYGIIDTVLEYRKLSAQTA

Results are given as percent effect.
The record does not define 0% and 100%; most values in the screen are far below 50% and negative numbers occur (in some assays of this library far below -100).
This is an unselected part of the compounds tested.

PfKRS1: 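Lysine-tRNA ligase, Plasmodium falciparum 3D7 (UniProt Q8IDJ8). Enzyme assay of the cytosolic lysyl-tRNA synthetase in 384-well plates, read by luminescence. Compounds at 30 µM. Direction is inferred from only a few compounds that gave an IC50; most scored high, so higher reads as stronger inhibition. Size under these conditions: about 69,000 compounds, about 49 of them at 50% or above in at least one test.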
LiHisRS: 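Enzyme assay of histidyl-tRNA synthetase; the read-out is not stated. Target: Histidine-tRNA ligase, Leishmania infantum (UniProt A4I591). Concentration: 30 µM. Direction is inferred from retests: higher values go with stronger inhibition. The assay is labelled LdHisRS but filed under L. infantum. Of about 69,000 compounds tested this way, about 410 (0.6%) reached 50% or more in at least one test.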
TcHisRS: 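Histidine-tRNA ligase, Trypanosoma cruzi CL Brener (UniProt Q4DA54). Enzyme assay of histidyl-tRNA synthetase; the read-out is not stated. Tested at 30 µM. The record gives no direction; compounds that gave an IC50 in retests scored well above the rest, so higher reads as stronger inhibition. Size under these conditions: about 69,000 compounds, about 31 of them at 50% or above in at least one test.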
Leishmania in macrophages: 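Cell assay of Leishmania donovani living inside macrophages; the read-out is not stated. Compounds at 30 µM. The record gives no direction; compounds that gave an IC50 in retests scored well above the rest, so higher reads as stronger inhibition. Size under these conditions: about 69,000 compounds, about 1,000 of them at 50% or above in at least one test.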
ClpP1P2: 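Protease assay of ClpP1P2, read by the AMC dye that it sets free. Target: ClpP1P2, Mycobacterium tuberculosis (UniProt P9WPC5 and UniProt P9WPC3). Concentration: 50 µM. Higher reads as stronger inhibition, judged from the few compounds that gave an IC50. Most other retested compounds had strongly negative values. Of about 69,000 compounds tested this way, about 10 (0.015%) reached 50% or more in at least one test.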

{"smiles": "Cn1ncc2c1NC(=O)CC2c1cc(Cl)ccc1F", "stereo": "stereo not shown", "PfKRS1": -0.5193, "LiHisRS": 0, "TcHisRS": 3.727, "Leishmania in macrophages": -14.37, "ClpP1P2": -23.19}
{"smiles": "CS(=O)(=O)NCCCNC(=O)c1cnc(-c2ccsc2)s1", "PfKRS1": 1.67, "LiHisRS": 6.25, "TcHisRS": 10, "Leishmania in macrophages": 5.559, "ClpP1P2": 2.464}
{"smiles": "[H][C@@]12COC[C@@H](Cc3nc(C)no3)[C@]1([H])CN(c1cc(OC)ncn1)C2", "Leishmania in macrophages": -7.983}
{"smiles": "COc1ncnc(N)c1CNCCOc1ccccc1Cl", "PfKRS1": -0.4721, "LiHisRS": 12.5, "TcHisRS": 13.16, "Leishmania in macrophages": -0.6082, "ClpP1P2": -7.417}
{"smiles": "CCn1ccc2ccnc(CC3CN(C(=O)c4cnco4)C3)c21", "PfKRS1": 0.1831, "LiHisRS": 11.35, "TcHisRS": 16.17, "Leishmania in macrophages": 11.65, "ClpP1P2": -18.27}
{"smiles": "Cc1ncsc1CN1C[C@@H]2CCCO[C@@H]2[C@H](Nc2ccccn2)C1", "PfKRS1": 2.986, "LiHisRS": 18.06, "TcHisRS": 11.21, "ClpP1P2": -6.175}
{"smiles": "Oc1cc(C2CCCCN2Cc2cccs2)nc(-c2ccccn2)n1", "stereo": "stereo not shown", "PfKRS1": 1.222, "LiHisRS": 5.594, "TcHisRS": 3.39, "Leishmania in macrophages": -29.76, "ClpP1P2": -22.58}
{"smiles": "Fc1ccc(N2CCC3(CC2)CC(OCc2cccnc2)CO3)cc1", "stereo": "stereo not shown", "PfKRS1": -2.069, "LiHisRS": 56.14, "TcHisRS": 27.96, "ClpP1P2": -6.811}
{"smiles": "COCC1c2nnn(CC3CC3)c2CCN1C(=O)c1ccncn1", "stereo": "stereo not shown", "PfKRS1": -2.312, "LiHisRS": 6.579, "TcHisRS": -10.87, "Leishmania in macrophages": -12.36, "ClpP1P2": -4.529}
{"smiles": "O=C(c1ccncc1)N1CCCC2(CCN(c3cccnc3)C2=O)C1", "stereo": "stereo not shown", "PfKRS1": -0.2747, "LiHisRS": 10.53, "TcHisRS": 6.557, "ClpP1P2": -12.85}
{"smiles": "O=C(c1ccc(C2CCCN2C(=O)c2cscn2)s1)N1CCSCC1", "stereo": "stereo not shown", "PfKRS1": 1.32, "LiHisRS": 4.301, "TcHisRS": 0.5181, "Leishmania in macrophages": -15.77, "ClpP1P2": 0.4382}
{"smiles": "[H][C@@]12COC[C@]1(COCC1CC1)CN(C(=O)c1ccnnc1)C2", "Leishmania in macrophages": 15.41}
{"smiles": "c1nc(NCc2cc3n(n2)CCN(C2CCCCC2)C3)c2nc[nH]c2n1", "PfKRS1": 6.978, "LiHisRS": 14.29, "TcHisRS": 9.231, "Leishmania in macrophages": 45.5, "ClpP1P2": -2.706}
{"smiles": "CC1CCCN(c2ccc(C(N)=O)cc2NC(=O)CC2=CCNCC2)C1", "stereo": "stereo not shown", "PfKRS1": 4.075, "LiHisRS": 30.77, "TcHisRS": 9.195, "Leishmania in macrophages": -21.8, "ClpP1P2": 2.849}
{"smiles": "O=C(CN1CCNCC1)N1CC[C@@H](c2ccc3ccccc3c2)[C@H](O)C1", "PfKRS1": 3.893, "LiHisRS": 18.45, "TcHisRS": 2.075, "Leishmania in macrophages": 16.47, "ClpP1P2": 2.293}
{"smiles": "Cc1cnn(CCNCC(O)COc2ccc(F)cc2)c1", "stereo": "stereo not shown", "PfKRS1": 0.3683, "LiHisRS": 13.56, "TcHisRS": 0.5714, "Leishmania in macrophages": -4.486, "ClpP1P2": -20.03}
{"smiles": "O=C(O)C(F)(F)F.[H][C@@]12OCCN(C(=O)c3ccc(C)nc3)[C@@]1([H])CC[C@H]2OC", "Leishmania in macrophages": 12.33}

For reference, 2 entries once more:

* Oc1cc(C2CCCCN2Cc2cccs2)nc(-c2ccccn2)n1 (stereo not shown) : PfKRS1: 1.222%; LiHisRS: 5.594%; TcHisRS: 3.39%; Leishmania in macrophages: -29.76%; ClpP1P2: -22.58%
* CS(=O)(=O)NCCCNC(=O)c1cnc(-c2ccsc2)s1 : PfKRS1: 1.67%; LiHisRS: 6.25%; TcHisRS: 10%; Leishmania in macrophages: 5.559%; ClpP1P2: 2.464%